# Measurements from publication PMC11078956, “Structural investigation of interactions between halogenated flavonoids and the lipid membrane along with their role as cytotoxic agents” (Scientific Reports, 2024).
# Experiments:
# [1] = FT-Raman of MIMIC lipid membranes with compounds; details: MIMIC membrane, 50 μM
# [2] = DLS size, PDI and zeta potential of MODEL liposomes; details: compound 30 μM, 2 h, 37 °C
# [3] = ATR-FTIR of MODEL lipid membranes with compounds; details: MODEL membrane, 50 μM, dry film, 37 °C
# [4] = FT-Raman of MODEL lipid membranes with compounds; details: MODEL membrane, 50 μM; for asymmetric CH3 stretching frequency: control 2955
# [5] = DPH probe fluorescence anisotropy in MIMIC liposomes; details: MIMIC membrane, 10-50 μM, 37 °C; D6 particularly at 50 μM, D4 only at the highest concentration
compound,measurement,setting,value
"O=c1cc(-c2ccc(Cl)cc2)oc2ccccc12 [D3, 4′-chloroflavone]",asymmetric CH3 stretching frequency,[1],2941 cm⁻¹
same,PDI of liposomes,[2],0.42 ± 0.08
same,Size of liposomes,[2],229.7 ± 6.65 nm
same,ζ potential of liposomes,[2],0.80 ± 0.11 mV
same,"symmetric stretching of PO2− groups, wavenumber",[3],approximately 1091 cm^−1
"O=c1cc(-c2ccccc2)oc2ccc(Cl)cc12 [D4, 6-chloroflavone]",PDI of liposomes,[2],0.45 ± 0.02
same,Size of liposomes,[2],239.48 ± 9.09 nm
same,ζ potential of liposomes,[2],0.31 ± 0.04 mV
"O=c1cc(-c2ccccc2)oc2c(Cl)cc(Cl)cc12 [D5, 6,8-dichloroflavone]",deformation of CH frequency,[4],1267 cm⁻¹
same,PDI of liposomes,[2],0.65 ± 0.08
same,Size of liposomes,[2],177.86 ± 15.85 nm
same,ζ potential of liposomes,[2],0.50 ± 0.04 mV
same,"symmetric stretching of PO2− groups, wavenumber",[3],approximately 1091 cm^−1
"O=c1cc(-c2cccc(Cl)c2)oc2ccccc12 [D2, 3′-chloroflavone]",C–C stretching frequency,[4],1145 cm⁻¹
same,asymmetric and symmetric CH2 stretching frequencies,[4],2888 cm⁻¹
same,asymmetric CH3 stretching frequency,[4],2947 cm⁻¹
same,PDI of liposomes,[2],0.41 ± 0.06
same,Size of liposomes,[2],200.8 ± 2.97 nm
same,redshift of symmetric PO2− stretching,[3],1 cm⁻¹
"O=c1cc(-c2ccccc2Cl)oc2ccccc12 [D1, 2′-chloroflavone]",PDI of liposomes,[2],0.38 ± 0.03
same,Size of liposomes,[2],195.27 ± 7.01 nm
same,"symmetric stretching of PO2− groups, wavenumber",[3],approximately 1091 cm^−1
"O=c1cc(-c2ccccc2)oc2c(Br)cc(Cl)cc12 [D6, 8-bromo-6-chloroflavone]",DPH anisotropy change,[5],reduction in anisotropy values
same,symmetric CH3 stretching frequency,[1],2914 cm⁻¹
same,asymmetric and symmetric CH2 stretching frequencies,[4],2888 cm⁻¹
same,deformation of CH frequency,[4],1266 cm⁻¹
same,asymmetric CH3 stretching frequency,[4],2948 cm⁻¹
same,PDI of liposomes,[2],0.50 ± 0.06
same,Size of liposomes,[2],239.83 ± 3.40 nm
same,ζ potential of liposomes,[2],0.38 ± 0.09 mV
same,redshift of symmetric PO2− stretching,[3],2 cm⁻¹
